Experimental data published in publication PMC4936093.
No constants are given. Whether binding was seen depends on the method and setting. Binding can be weak; no strength is given.

Biological target: VpPI (Viola philippica)
Assay: two-hybrid; yeast GAL4 two-hybrid system, strain AH109; BD and AD fusion plasmids co-transformed; growth on SD plates lacking Leu, Trp, Ade and His, confirmed by non-lethal beta-galactosidase assay; which protein was the BD and which the AD fusion is not told

| Substance | binding |
| --- | --- |
| VpTM6-1 (from UniProt A0A1S5T3I6) | binds |
| VpTM6-2 (from UniProt A0A1S5T3I1) | binds weakly |
